No constants are given. Whether binding was seen depends on the method and setting. Binding seen in cells or lysates may run through a third protein. Some entries that bind do so weakly or less than the wild type. Sequences can lack the tags named with a protein.
Legend:
Assay in all cases: co-IP; IP of GFP-tagged subunits from HeLa cells co-expressing HA-VIPAS39 alone (left panel) or HA-VIPAS39 and HA-Vps33B (right panel), blot for HA; lysis buffer 40 mM TRIS pH 7.4, 100 mM NaCl, 0.1% TX-100, 5 mM EDTA; also read after prolonged exposure of the blot
GFP-tagged Vps41 = target: T1, GFP-tagged Vps41 (UniProt P49754)
T1 sequence: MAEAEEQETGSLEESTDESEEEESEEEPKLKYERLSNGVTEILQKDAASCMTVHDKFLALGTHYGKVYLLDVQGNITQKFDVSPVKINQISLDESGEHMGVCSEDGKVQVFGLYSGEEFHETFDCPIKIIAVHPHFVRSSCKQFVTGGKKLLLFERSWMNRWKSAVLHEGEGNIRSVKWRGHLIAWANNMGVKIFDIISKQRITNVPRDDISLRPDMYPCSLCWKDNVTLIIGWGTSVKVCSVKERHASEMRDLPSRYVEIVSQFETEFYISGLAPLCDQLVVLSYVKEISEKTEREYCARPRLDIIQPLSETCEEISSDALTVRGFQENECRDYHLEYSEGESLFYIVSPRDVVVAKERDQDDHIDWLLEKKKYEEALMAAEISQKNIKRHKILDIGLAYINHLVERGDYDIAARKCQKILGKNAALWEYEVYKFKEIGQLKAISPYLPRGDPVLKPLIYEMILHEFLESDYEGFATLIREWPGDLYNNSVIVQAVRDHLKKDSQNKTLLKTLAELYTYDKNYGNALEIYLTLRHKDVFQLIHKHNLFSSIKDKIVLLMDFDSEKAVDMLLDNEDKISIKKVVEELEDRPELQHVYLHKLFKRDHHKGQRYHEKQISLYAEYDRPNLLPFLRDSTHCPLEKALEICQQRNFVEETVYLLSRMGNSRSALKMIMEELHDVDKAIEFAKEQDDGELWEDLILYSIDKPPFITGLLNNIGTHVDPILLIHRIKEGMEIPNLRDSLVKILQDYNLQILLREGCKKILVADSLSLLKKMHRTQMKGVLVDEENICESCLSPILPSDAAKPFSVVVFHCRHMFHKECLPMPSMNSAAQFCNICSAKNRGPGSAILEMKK

GFP-Vps3 = target: T2, GFP-Vps3 (UniProt Q8WUH2)
T2 sequence: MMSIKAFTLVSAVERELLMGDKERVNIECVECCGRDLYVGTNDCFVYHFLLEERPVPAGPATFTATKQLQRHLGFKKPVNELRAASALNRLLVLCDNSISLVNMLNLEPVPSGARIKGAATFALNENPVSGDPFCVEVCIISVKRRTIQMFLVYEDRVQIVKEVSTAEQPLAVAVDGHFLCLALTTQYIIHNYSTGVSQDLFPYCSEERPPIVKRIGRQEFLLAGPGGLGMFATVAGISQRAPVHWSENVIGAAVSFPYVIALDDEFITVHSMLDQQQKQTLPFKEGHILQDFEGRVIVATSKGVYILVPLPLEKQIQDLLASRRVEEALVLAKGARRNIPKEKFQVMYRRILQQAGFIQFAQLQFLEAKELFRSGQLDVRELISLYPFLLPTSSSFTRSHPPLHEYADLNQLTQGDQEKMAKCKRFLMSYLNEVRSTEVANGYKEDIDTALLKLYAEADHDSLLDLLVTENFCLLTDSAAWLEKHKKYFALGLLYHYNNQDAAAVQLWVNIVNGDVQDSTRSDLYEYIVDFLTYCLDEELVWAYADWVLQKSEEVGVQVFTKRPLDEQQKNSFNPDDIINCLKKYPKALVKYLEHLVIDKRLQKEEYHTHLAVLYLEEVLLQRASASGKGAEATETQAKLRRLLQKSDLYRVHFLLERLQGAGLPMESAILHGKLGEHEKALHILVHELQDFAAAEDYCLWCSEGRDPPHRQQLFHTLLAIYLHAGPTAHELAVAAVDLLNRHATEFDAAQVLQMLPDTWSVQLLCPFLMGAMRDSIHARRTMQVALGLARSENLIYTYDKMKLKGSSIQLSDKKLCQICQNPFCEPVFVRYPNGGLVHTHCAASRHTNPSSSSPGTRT

GFP-Vps33B = target: T3, GFP-Vps33B (UniProt Q9H267)
T3 sequence: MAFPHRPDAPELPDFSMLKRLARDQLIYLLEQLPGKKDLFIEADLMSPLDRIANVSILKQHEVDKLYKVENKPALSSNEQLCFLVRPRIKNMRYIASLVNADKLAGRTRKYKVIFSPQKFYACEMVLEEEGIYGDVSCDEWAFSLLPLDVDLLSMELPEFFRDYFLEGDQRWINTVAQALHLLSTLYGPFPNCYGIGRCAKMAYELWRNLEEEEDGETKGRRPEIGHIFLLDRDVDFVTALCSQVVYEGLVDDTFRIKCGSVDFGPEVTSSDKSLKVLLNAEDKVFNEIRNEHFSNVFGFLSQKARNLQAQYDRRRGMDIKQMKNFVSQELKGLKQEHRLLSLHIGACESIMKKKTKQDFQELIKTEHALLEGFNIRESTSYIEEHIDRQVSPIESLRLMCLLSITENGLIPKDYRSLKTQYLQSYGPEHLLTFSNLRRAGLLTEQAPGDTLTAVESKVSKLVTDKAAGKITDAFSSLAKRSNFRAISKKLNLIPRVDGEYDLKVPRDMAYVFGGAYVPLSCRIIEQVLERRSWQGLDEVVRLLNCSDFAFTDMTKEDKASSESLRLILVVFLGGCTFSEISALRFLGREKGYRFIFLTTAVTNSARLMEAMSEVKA

B1: HA-VIPAS39 (protein, UniProt Q9H9C1 1-493)
chain: MNRTKGDEEEYWNSSKFKAFTFDDEDDELSQLKESKRAVNSLRDFVDDDDDDDLERVSWSGEPVGSISWSIRETAGNSGSTHEGREQLKSRNSFSSYAQLPKPTSTYSLSSFFRGRTRPGSFQSLSDALSDTPAKSYAPELGRPKGEYRDYSNDWSPSDTVRRLRKGKVCSLERFRSLQDKLQLLEEAVSMHDGNVITAVLIFLKRTLSKEILFRELEVRQVALRHLIHFLKEIGDQKLLLDLFRFLDRTEELALSHYREHLNIQDPDKRKEFLKTCVGLPFSAEDSAHIQDHYTLLERQIIIEANDRHLESAGQTEIFRKHPRKASILNMPLVTTLFYSCFYHYTEAEGTFSSPVNLKKTFKIPDKQYVLTALAARAKLRAWNDVDALFTTKNWLGYTKKRAPIGFHRVVEILHKNNAPVQILQEYVNLVEDVDTKLNLATKFKCHDVVIDTYRDLKDRQQLLAYRSKVDKGSAEEEKIDALLSSSQIRWKN
For B1, which binding (GFP-tagged Vps41) is on record?
The binding was “no binding”.

And the binding (GFP-Vps3)?
The binding was “binds weakly”.

What about the binding (GFP-Vps33B) of the same binder?
Its binding is “binds”.

B2: HA-Vps33B (protein, UniProt Q9H267 1-617)
chain: MAFPHRPDAPELPDFSMLKRLARDQLIYLLEQLPGKKDLFIEADLMSPLDRIANVSILKQHEVDKLYKVENKPALSSNEQLCFLVRPRIKNMRYIASLVNADKLAGRTRKYKVIFSPQKFYACEMVLEEEGIYGDVSCDEWAFSLLPLDVDLLSMELPEFFRDYFLEGDQRWINTVAQALHLLSTLYGPFPNCYGIGRCAKMAYELWRNLEEEEDGETKGRRPEIGHIFLLDRDVDFVTALCSQVVYEGLVDDTFRIKCGSVDFGPEVTSSDKSLKVLLNAEDKVFNEIRNEHFSNVFGFLSQKARNLQAQYDRRRGMDIKQMKNFVSQELKGLKQEHRLLSLHIGACESIMKKKTKQDFQELIKTEHALLEGFNIRESTSYIEEHIDRQVSPIESLRLMCLLSITENGLIPKDYRSLKTQYLQSYGPEHLLTFSNLRRAGLLTEQAPGDTLTAVESKVSKLVTDKAAGKITDAFSSLAKRSNFRAISKKLNLIPRVDGEYDLKVPRDMAYVFGGAYVPLSCRIIEQVLERRSWQGLDEVVRLLNCSDFAFTDMTKEDKASSESLRLILVVFLGGCTFSEISALRFLGREKGYRFIFLTTAVTNSARLMEAMSEVKA
For B2, which binding (GFP-tagged Vps41) is on record?
Its binding is “no binding”.
